Test results: patent publication US7981443B2, “Method of treating sleep disordered breathing using topiramate” (priority 2000, dated 2011)

System: obstructive sleep apnoea (OSA)
Assay: Double-blind, placebo controlled cross-over study of topiramate in patients with light to moderate OSA
Assay type: in vivo
Details: after topiramate 100 mg b.i.d for 10 days
Method: A double-blind, placebo controlled cross-over study of topiramate was undertaken in 2 patients with light to moderate OSA (A/H index, 22 and 35 on previous screening). Topiramate (100 mg b.i.d or corresponding placebo) was administered for 10 days in each cross-over period. A wash-out period of one week was applied between the two treatment periods.

Structure (SMILES): CC1(C)O[C@@H]2[C@@H](CO[C@@]3(COS(N)(=O)=O)OC(C)(C)O[C@@H]23)O1 [topiramate, 2,3:4,5-di-o-isopropylidene-β-D-fructopyranose sulfamate]
- Relative proportions of non-REM stage 1+2, slow wave sleep and REM sleep: remained unchanged
- Total sleep time: no clinically significant change
